Assay results: PMC3699650, “Structural Insights into the Abscisic Acid Stereospecificity by the ABA Receptors PYR/PYL/RCAR” (PLoS ONE, 2013)

Amino acid sequences for entries named in this document (tags omitted). A change or cut given only in a name is not applied to a line headed by its entry.
UniProt Q9CAJ0: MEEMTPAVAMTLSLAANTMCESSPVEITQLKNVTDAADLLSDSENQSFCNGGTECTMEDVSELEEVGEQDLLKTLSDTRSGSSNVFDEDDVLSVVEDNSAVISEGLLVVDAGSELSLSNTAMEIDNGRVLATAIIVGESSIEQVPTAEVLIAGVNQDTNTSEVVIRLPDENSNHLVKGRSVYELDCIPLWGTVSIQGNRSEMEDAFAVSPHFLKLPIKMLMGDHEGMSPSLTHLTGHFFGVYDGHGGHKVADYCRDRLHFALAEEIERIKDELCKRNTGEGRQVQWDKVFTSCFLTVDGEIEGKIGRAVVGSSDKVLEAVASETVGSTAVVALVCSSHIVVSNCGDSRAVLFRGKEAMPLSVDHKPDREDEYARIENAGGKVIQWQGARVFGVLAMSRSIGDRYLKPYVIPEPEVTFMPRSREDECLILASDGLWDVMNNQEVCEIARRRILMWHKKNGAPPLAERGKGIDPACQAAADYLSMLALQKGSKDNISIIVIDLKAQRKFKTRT

Molecular target: GST-HAB1 (residues 169–511) (Arabidopsis thaliana) (UniProt Q9CAJ0)
Assay: pull-down; GST-mediated pulldown of PYL3 proteins by GST-HAB1 in the presence of (−)-ABA; Coomassie Brilliant Blue staining; both purified

| binding | Binder |
| --- | --- |
| binds | PYL3 (wild type) (receptor, UniProt Q9SSM7 1-209) MNLAPIHDPSSSSTTTTSSSTPYGLTKDEFSTLDSIIRTHHTFPRSPNTCTSLIAHRVDAPAHAIWRFVRDFANPNKYKHFIKSCTIRVNGNGIKEIKVGTIREVSVVSGLPASTSVEILEVLDEEKRILSFRVLGGEHRLNNYRSVTSVNEFVVLEKDKKKRVYSVVLESYIVDIPQGNTEEDTRMFVDTVVKSNLQNLAVISTASPT |
| no binding | PYL3 V192A/V193A (receptor, UniProt Q9SSM7 1-209) MNLAPIHDPSSSSTTTTSSSTPYGLTKDEFSTLDSIIRTHHTFPRSPNTCTSLIAHRVDAPAHAIWRFVRDFANPNKYKHFIKSCTIRVNGNGIKEIKVGTIREVSVVSGLPASTSVEILEVLDEEKRILSFRVLGGEHRLNNYRSVTSVNEFVVLEKDKKKRVYSVVLESYIVDIPQGNTEEDTRMFVDTAAKSNLQNLAVISTASPT |
| no binding | PYL3 F81A (receptor, UniProt Q9SSM7 1-209) MNLAPIHDPSSSSTTTTSSSTPYGLTKDEFSTLDSIIRTHHTFPRSPNTCTSLIAHRVDAPAHAIWRFVRDFANPNKYKHAIKSCTIRVNGNGIKEIKVGTIREVSVVSGLPASTSVEILEVLDEEKRILSFRVLGGEHRLNNYRSVTSVNEFVVLEKDKKKRVYSVVLESYIVDIPQGNTEEDTRMFVDTVVKSNLQNLAVISTASPT |
| no binding | PYL3 H139A (receptor, UniProt Q9SSM7 1-209) MNLAPIHDPSSSSTTTTSSSTPYGLTKDEFSTLDSIIRTHHTFPRSPNTCTSLIAHRVDAPAHAIWRFVRDFANPNKYKHFIKSCTIRVNGNGIKEIKVGTIREVSVVSGLPASTSVEILEVLDEEKRILSFRVLGGEARLNNYRSVTSVNEFVVLEKDKKKRVYSVVLESYIVDIPQGNTEEDTRMFVDTVVKSNLQNLAVISTASPT |
| no binding | PYL3 F188A (receptor, UniProt Q9SSM7 1-209) MNLAPIHDPSSSSTTTTSSSTPYGLTKDEFSTLDSIIRTHHTFPRSPNTCTSLIAHRVDAPAHAIWRFVRDFANPNKYKHFIKSCTIRVNGNGIKEIKVGTIREVSVVSGLPASTSVEILEVLDEEKRILSFRVLGGEHRLNNYRSVTSVNEFVVLEKDKKKRVYSVVLESYIVDIPQGNTEEDTRMAVDTVVKSNLQNLAVISTASPT |
| no binding | PYL3 Y144A (receptor, UniProt Q9SSM7 1-209) MNLAPIHDPSSSSTTTTSSSTPYGLTKDEFSTLDSIIRTHHTFPRSPNTCTSLIAHRVDAPAHAIWRFVRDFANPNKYKHFIKSCTIRVNGNGIKEIKVGTIREVSVVSGLPASTSVEILEVLDEEKRILSFRVLGGEHRLNNARSVTSVNEFVVLEKDKKKRVYSVVLESYIVDIPQGNTEEDTRMFVDTVVKSNLQNLAVISTASPT |
| no binding | PYL3 K79A (receptor, UniProt Q9SSM7 1-209) MNLAPIHDPSSSSTTTTSSSTPYGLTKDEFSTLDSIIRTHHTFPRSPNTCTSLIAHRVDAPAHAIWRFVRDFANPNKYAHFIKSCTIRVNGNGIKEIKVGTIREVSVVSGLPASTSVEILEVLDEEKRILSFRVLGGEHRLNNYRSVTSVNEFVVLEKDKKKRVYSVVLESYIVDIPQGNTEEDTRMFVDTVVKSNLQNLAVISTASPT |

Results are given in words; binding and its absence hold for the method and conditions named. A result given as binding can be weak or reduced; the word gives no strength.
